Data as given in paper PMC5796162.
Construct, isoform or probe ends are uncertain for at least one entry. Results from cells or extracts need not show a direct contact. For some of these results: No signal at the amounts used counts as a negative. For some of these results: At least one verdict rests on a figure or table, not on a statement of the authors. For some of these results: Where a protein sequence is shown, tags need not be part of it.

What was measured:
histone H4 [1] = target: histone H4 (UniProt P62803); assay: competition with a labelled probe; details: 50x mutant competitor had little effect on complex; LightShift Chemiluminescent EMSA kit: 200 fmol biotin probe, 10 ug nuclear extract, 1x binding buffer, poly dI-dC, glycerol, 20 uL; 6% native gel; protein in an extract
histone H4 [2] = target: histone H4 (UniProt P62803); assay: EMSA supershift; details: anti-histone H4 supershift, 50x unlabeled probe abolishes band; LightShift Chemiluminescent EMSA kit: 200 fmol biotin probe, 10 ug nuclear extract, 1x binding buffer, poly dI-dC, glycerol, 20 uL; 6% native gel; protein in an extract; label: 5'-biotin (unlabeled as competitor)
E2F2 [3] = target: T1, E2F2 (UniProt E1BD75); assay: competition with a labelled probe; details: 50x mutant competitor, results stated similar to histone H4; LightShift Chemiluminescent EMSA kit: 200 fmol biotin probe, 10 ug nuclear extract, 1x binding buffer, poly dI-dC, glycerol, 20 uL; 6% native gel; protein in an extract
T1 sequence (looked up, limits assumed): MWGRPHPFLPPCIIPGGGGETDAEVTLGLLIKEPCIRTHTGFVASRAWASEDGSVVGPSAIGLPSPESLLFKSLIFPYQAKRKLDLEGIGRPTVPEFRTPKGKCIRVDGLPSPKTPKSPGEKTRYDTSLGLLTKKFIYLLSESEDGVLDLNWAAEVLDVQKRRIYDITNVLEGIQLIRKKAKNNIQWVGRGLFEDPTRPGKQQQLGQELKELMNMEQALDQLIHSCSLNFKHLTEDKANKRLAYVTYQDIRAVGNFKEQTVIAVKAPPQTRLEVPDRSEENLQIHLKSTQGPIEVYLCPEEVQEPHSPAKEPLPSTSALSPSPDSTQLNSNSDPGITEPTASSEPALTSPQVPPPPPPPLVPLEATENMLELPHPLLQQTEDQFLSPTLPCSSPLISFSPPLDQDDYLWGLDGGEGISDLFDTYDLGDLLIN

E2F2 [4] = target: T1, E2F2; assay: EMSA supershift; details: anti-E2F2 supershift, 50x unlabeled probe competes; LightShift Chemiluminescent EMSA kit: 200 fmol biotin probe, 10 ug nuclear extract, 1x binding buffer, poly dI-dC, glycerol, 20 uL; 6% native gel; protein in an extract; label: 5'-biotin (unlabeled as competitor)

**Q.** Does “CCCGGATAGGCGCCGAAAACAGCCAATCAGCGCG / CGCGCTGATTGGCTGCTTTTGGCGCCTATCCGGG [mHistone H4 probe]” bind (histone H4 [1])?
**A.** Result: no binding

**Q.** Does “CCCGGATAGGCGCCGCCCGCAGCCAATCAGCGCG (double strand) [histone H4 probe (SIX1 promoter)]” bind (histone H4 [2])?
**A.** Result: binds

**Q.** Does “CCGCAGCCAATCAGCGAAAAGAGAACGCTGCGCG (double strand) [mE2F2 probe]” bind (E2F2 [3])?
**A.** Result: no binding

**Q.** Does “CCGCAGCCAATCAGCGCGCCGAGAACGCTGCGCG (double strand) [E2F2 probe (SIX1 promoter)]” bind (E2F2 [4])?
**A.** Result: binds
